Assay results as given in patent US11173120B2, “Stable formulations of lipids and liposomes” (BioNTech RNA Pharmaceuticals GmbH, priority 2014, dated 2021).
At least one structure is not confirmed: it was looked up by name or label, or the drawing left a doubt.

Test: Stability of DOTAP/DOPE liposomes as a function of pH (lipid recovery)
Assay type: physicochemical
Details: two weeks at 40° C., different pH conditions

Structure (SMILES): CCCCCCCC/C=C\CCCCCCCC(=O)OCC(C[N+](C)(C)C)OC(=O)CCCCCCC/C=C\CCCCCCCC (stereo not shown) [DOTAP, 1,2-dioleoyl-3-trimethylammoniumpropane]
- lipid recovery from DOTAP/DOPE liposomes: hydrolysis took place
